Some peptides are written in HELM: one residue between dots, names in brackets for other building blocks, links after the first $. Non-standard residues stand in square brackets, D forms with d. *: point of attachment. dOrn = NCCC[C@@H](N)C(=O)O; Cbz = O=C(OCc1ccccc1)*; Boc = CC(C)(C)OC(=O)*; Bn = c1ccc(C*)cc1
Test: general procedure: solution-phase peptide synthesis; isobutyl chloroformate/N-methyl morpholine (mixed anhydride); dicyclohexyl carbo
Conditions: coupling step
For Boc-Arg (NO2)-Tyr-D-Ala-Phe-Gly-oBzl, the step yield was 87.2%. In the case of Boc-Tyr(Boc)-D-Ala-Phe-Gly-oBzl, the step yield is reported as 83.4%. Substance Boc-Tyr(Bzl)-D-Orn(Z)-Phe-D-Glu-(oBzl)2 has a step yield of 93.2%. For Boc-Y(Bn)[dOrn](Cbz)F[dA]-OH, the step yield was 82.0%. In the case of Z3 -Arg-Tyr(Bzl)-D-Orn(Z)-Phe-D-Ala-OH, the step yield is reported as 92.0%.

Same assay, conditions: late stage modification step
For PEPTIDE1{R.Y.[D-Orn].F.[dA]}$$$$V2.0, the step yield was 80.8%. PEPTIDE1{Y.[D-Orn].F.[dE]}$$$$V2.0 gave a step yield of 98.8%. Substance TFA.H-Tyr(Bzl)-D-Orn(Z)-Phe-D-Ala-OH has a step yield of 100%. In the case of TFA.Tyr-D-Ala-Phe-Gly-oBzl, the step yield is reported as 100%.
